Results from one PubChem assay

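Genome-wide siRNA knockdown in TC32 Ewing sarcoma cells, comparing luciferase light from an NR0B1-promoter reporter with a CMV-promoter reporter 48 hours after transfection. Each siRNA was applied at 20 nM. A z-score of the log NR0B1-over-CMV signal, less the median of siRNAs with the same seed; more negative means a stronger specific loss of the NR0B1 reporter.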

This is part of the screen; most of the strongest results are not listed here. Sequences are the guide (antisense) strand, without overhang.

strand,gene,seed-corrected z-score
UCACAGUCCGGAUUGAGCU,BGLAP,-0.02951
AAGGGAGUCGAGUAGAUCC,HOXC6,-0.09421
UAUGGCAUCCGAGUCCUCC,OMP,0.8802
UCUCUAUAAGAUACCAGGC,EXOC2,0.9461
UUCAGACUAGUGUUCACUG,TIMMDC1,0.6182
AAGCUGUUCAGAUCAGAUG,C12orf66,-1.563
AUAGGAGGAACAGAUAUGC,C17orf82,-1.545
UCUGAUCUAAGAGCUGGGU,EEF1DP6,1.321
UAAGAUUGCAGGCCCACUG,FAM222A,-0.5618
UAGCGAAGCAGAAUACAUC,HAPLN3,-0.9492
UCUGACACCAUAGGUCUCC,TAGLN3,0.8067
UCUUCAACUGGUAAUAGGC,P3H3,0.7718
UCAUCAUCUAGCUUGGUUC,SH3GL2,-0.2755
UUCCGUACGGGCUGACUCU,C1orf159,0.4056
AACUGGUAAAAUAGGAACC,AGBL2,-0.4385
UACGAAACAGGAUCUAUGC,OSBPL2,0.3874
UGGGCUUUCAGACAAUGGG,TMEM31,-0.09881
AUAGGUCCUAAGGAGAUCA,CLDND1,-0.2243
UUAUUGUCGAUGGAAUAGG,MCTP2,0.4572
UUCGAGUUUGAGAUCCUUC,NECAB1,-0.1393
UCUGGAUCCACAACCGUGU,CYHR1,-0.6182
UAACUCUAGACUGAUACCU,GNLY,0.2143
UUUUUAAGUAGUGACGUGA,ZNF644,1.04
UGACUUUGUAUACUCUUUG,TBC1D26,-1.658
AUAGAUACCACUCCACUGG,RBBP5,1.11
UUGCUUGUAGGCUUCGUGG,NQO2,-0.687
UUUUUGCCUGGAAUGUACC,CORO1C,-0.5398
UAACUUCAGGUGCAGUUGC,NEFM,-0.6232
UUUACAUUAAAUCGAAUCC,KNCN,1.001
UGUCCUAAAAUAGGGAUCC,MTMR10,-0.1216
UUCUUGAAGAAGCUAGUCU,IARS2P1,1.502
UCCUCUAGACUGAACAAGG,CLCN6,-0.05822
UUGCAUUAUAGAUUUUAGC,FAM216A,-0.03405
UCUGAUAUAUCGCAGCUCC,AMN1,0.2303
UUUCUUGAUACGUUUCAGG,HEMGN,1.312
UCGUUGUCAAGGAUUGUGG,SLC1A1,-0.2336
UUUUCAUAUACUGAUCUUC,BLVRA,0.09648
AACAGAAUGAUCUAGAGAC,LHX3,0.829
AUAGUGGACAGACUCGCGG,LPAR2,0.2305
UCAUAUUCCACGACACCUG,BRE,0.1592
UCAUAAGUCAUAGCUUCCG,SELE,0.1934
UUCUCGAAGCGGUUGUACU,RPS11,2.518
UGUUGUAGCAGGACGACUG,KIAA1024,0.4946
UUCUGGACGGGCUUCAUAG,HSPA5,0.1982
UGAUGUUAGUCUGUGAAGC,NOL7,0.3885
ACAGGAACAACAAAUCGCC,NPLOC4,-1.072
AUAGAAUAGGGUAUCCUGG,KRTAP7-1,0.7164
UGCUUGUAAAAACAGUUCC,MKRN1,-0.08801
UCCUGUAUCAUAGAAGAUC,DPP8,-0.2945
UGCAUAAAAAGAUCUGCUC,ZNF664,-0.5676
UUCCUAGUAAUUCAACUGC,NAPG,0.643
UUACAUGCGAUUGUAUCGG,ATF7,-0.8092
UUAACUAACAUUCCUAUGG,TMED7,0.4061

The results are deposited in PubChem (AID1159506; NCATS, 2015).